{"source": "patent US9775859B2", "about": "“Methods and compositions for preventing and treating a disease related to glycan dysregulation” (Sinai Health System, priority 2005, dated 2017)", "tested_on": "Jurkat T-cells", "experiment": "L-PHA-FITC staining of Jurkat T cells cultured 3 days with monosaccharides, metabolites, Vitamin D3 or glycosidase inhibitors, FACS", "type": "cell-based, human", "description": "Mice used for L-PHA staining and quantitative RT-PCR were sex and age matched. […] 129/Sv mice were from an original Mgat5 gene targeted population (28). All other mice (SJL, NOD, Balb/c and B10.S) were obtained from Jackson Laboratories. […] Mouse and Jurkat cells were stained with L-PHA and LEA by first blocking with PBA (2% bovine serum albumin/0.01% azide/PBS) for 10 min at 4° C. and then incubated with 4 μg/ml of L-PHA-FITC (Vector Laboratories Inc.) or 20 μg/ml of LEA-FITC (Sigma) in PBA for 40 min at 4° C. and analyzed by a BD FACSCalihur (BD Pharmingen, San Diego, Calif.). The level of lectin binding was normalized by untreated control and calculated as a percentage (Sample intensity/control intensity-1) %.\nMice used for L-PHA staining and quantitative RT-PCR were sex and age matched. […] 129/Sv mice were from the original Mgat5 gene targeted population (28). All other mice (SJL, NOD, Balb/c and B10.S) were obtained from Jackson Laboratories. Mouse cells were stained with anti-CD4 (RM4-5), anti-CD8 (53-6.7), anti-CD45R (RA3-6B2) from eBioscience, and L-PHA (4 μg/ml) and LEA (20 μg/ml) from Sigma. […] Jurkat T-cells were cultured in either glutamine free RPMI 1640, 10% FBS, 10 mM/20 mM glucose or glucose/glutamine free DMEM base media supplemented with 10% FBS, 1.5 mM glucose. […]", "note": "Some of these results come from one statement about several compounds together.", "data": [{"smiles": "O=c1cc[nH]c(=O)[nH]1", "note": "[uracil]", "values": [{"measurement": "concentration to increase Mgat5 glycan expression, fold lower than GlcNAc and uridine", "result": "100-1000 fold"}]}]}
